Experimental data published in the supplement of paper PMC12067093, “Discovery and optimisation of a covalent ligand for TRIM25 and its application to targeted protein ubiquitination” (Chemical Science, 2025).
The list shows a part of the results.

Protein sequences, listed by entry. Tags and fused reporters are not part of them. Lines headed by an entry give the natural chain unless they say otherwise; changes in a name come on top.
UniProt Q96CW6: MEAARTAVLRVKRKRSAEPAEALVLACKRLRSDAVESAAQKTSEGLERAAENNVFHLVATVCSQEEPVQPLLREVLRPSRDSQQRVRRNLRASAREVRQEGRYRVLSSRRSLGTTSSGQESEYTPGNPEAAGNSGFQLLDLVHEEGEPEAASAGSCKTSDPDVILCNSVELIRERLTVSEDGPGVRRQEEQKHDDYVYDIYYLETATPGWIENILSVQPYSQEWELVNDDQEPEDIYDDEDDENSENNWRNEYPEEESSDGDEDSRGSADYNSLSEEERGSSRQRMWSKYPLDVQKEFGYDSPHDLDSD
UniProt Q14683: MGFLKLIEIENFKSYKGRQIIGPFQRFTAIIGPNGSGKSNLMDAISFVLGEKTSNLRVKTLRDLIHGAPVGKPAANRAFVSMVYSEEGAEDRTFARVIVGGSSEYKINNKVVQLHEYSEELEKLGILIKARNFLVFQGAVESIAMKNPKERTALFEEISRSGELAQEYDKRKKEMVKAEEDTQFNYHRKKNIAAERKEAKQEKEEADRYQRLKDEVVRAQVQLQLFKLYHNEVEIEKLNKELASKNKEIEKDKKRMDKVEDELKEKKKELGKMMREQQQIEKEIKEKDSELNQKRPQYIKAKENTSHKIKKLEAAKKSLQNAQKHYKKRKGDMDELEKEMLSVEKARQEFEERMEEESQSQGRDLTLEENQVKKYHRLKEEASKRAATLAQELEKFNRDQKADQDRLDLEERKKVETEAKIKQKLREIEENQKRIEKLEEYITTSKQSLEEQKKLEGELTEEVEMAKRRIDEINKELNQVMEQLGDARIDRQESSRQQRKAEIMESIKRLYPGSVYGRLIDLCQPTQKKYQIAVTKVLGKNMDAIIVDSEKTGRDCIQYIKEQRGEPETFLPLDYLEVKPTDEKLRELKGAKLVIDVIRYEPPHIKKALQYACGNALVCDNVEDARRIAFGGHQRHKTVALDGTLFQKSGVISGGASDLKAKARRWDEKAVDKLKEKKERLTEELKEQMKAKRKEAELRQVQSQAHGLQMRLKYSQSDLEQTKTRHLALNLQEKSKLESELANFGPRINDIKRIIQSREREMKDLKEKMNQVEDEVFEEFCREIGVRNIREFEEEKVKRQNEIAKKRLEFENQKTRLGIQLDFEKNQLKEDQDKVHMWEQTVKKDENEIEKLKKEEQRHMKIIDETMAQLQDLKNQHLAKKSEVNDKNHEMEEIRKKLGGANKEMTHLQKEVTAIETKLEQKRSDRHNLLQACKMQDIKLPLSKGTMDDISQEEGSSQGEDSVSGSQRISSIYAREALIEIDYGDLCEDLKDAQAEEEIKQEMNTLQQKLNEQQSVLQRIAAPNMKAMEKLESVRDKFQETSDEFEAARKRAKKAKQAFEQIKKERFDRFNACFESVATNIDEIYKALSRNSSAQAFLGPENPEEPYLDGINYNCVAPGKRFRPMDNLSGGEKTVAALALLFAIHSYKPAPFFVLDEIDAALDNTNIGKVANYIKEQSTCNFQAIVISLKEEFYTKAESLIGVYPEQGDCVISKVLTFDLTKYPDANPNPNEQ
UniProt Q96SB8: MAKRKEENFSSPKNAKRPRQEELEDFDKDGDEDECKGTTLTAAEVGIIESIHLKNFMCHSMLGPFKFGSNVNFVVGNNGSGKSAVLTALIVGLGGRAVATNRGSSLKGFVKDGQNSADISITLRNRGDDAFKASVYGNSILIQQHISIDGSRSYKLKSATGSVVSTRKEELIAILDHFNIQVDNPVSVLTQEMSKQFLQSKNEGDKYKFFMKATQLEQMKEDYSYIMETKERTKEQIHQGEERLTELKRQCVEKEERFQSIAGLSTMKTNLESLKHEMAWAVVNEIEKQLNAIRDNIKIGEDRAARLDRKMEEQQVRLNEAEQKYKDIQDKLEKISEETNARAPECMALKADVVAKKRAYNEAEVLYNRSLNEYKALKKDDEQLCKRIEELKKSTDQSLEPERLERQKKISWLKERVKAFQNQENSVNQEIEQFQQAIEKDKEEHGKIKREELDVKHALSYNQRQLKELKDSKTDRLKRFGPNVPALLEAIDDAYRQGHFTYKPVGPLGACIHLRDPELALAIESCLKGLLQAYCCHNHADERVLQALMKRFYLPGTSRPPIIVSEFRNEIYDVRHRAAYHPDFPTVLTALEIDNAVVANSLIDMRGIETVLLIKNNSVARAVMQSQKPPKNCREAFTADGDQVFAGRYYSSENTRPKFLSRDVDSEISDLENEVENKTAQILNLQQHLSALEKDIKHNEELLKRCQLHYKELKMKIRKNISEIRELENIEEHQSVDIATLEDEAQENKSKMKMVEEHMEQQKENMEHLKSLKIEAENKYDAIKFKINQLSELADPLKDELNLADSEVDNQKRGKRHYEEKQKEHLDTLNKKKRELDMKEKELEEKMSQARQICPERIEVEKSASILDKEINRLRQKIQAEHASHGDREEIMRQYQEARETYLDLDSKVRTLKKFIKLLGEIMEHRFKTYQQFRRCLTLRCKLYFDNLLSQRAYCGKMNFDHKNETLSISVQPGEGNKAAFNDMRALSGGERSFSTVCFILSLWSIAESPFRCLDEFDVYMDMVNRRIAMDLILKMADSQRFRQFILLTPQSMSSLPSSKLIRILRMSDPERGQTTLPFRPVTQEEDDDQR
UniProt P84022, whole entry, looked up: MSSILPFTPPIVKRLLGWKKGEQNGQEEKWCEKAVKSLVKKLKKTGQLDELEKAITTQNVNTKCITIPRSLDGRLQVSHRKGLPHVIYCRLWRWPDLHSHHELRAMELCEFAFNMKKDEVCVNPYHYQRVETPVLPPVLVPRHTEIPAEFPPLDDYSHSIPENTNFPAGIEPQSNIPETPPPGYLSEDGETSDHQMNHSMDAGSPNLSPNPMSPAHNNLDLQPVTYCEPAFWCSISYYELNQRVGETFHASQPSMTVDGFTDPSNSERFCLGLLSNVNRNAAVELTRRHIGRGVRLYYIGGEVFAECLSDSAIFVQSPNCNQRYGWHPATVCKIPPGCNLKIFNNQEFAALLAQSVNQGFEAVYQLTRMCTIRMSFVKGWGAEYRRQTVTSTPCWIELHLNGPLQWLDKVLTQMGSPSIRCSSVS
UniProt Q86US8: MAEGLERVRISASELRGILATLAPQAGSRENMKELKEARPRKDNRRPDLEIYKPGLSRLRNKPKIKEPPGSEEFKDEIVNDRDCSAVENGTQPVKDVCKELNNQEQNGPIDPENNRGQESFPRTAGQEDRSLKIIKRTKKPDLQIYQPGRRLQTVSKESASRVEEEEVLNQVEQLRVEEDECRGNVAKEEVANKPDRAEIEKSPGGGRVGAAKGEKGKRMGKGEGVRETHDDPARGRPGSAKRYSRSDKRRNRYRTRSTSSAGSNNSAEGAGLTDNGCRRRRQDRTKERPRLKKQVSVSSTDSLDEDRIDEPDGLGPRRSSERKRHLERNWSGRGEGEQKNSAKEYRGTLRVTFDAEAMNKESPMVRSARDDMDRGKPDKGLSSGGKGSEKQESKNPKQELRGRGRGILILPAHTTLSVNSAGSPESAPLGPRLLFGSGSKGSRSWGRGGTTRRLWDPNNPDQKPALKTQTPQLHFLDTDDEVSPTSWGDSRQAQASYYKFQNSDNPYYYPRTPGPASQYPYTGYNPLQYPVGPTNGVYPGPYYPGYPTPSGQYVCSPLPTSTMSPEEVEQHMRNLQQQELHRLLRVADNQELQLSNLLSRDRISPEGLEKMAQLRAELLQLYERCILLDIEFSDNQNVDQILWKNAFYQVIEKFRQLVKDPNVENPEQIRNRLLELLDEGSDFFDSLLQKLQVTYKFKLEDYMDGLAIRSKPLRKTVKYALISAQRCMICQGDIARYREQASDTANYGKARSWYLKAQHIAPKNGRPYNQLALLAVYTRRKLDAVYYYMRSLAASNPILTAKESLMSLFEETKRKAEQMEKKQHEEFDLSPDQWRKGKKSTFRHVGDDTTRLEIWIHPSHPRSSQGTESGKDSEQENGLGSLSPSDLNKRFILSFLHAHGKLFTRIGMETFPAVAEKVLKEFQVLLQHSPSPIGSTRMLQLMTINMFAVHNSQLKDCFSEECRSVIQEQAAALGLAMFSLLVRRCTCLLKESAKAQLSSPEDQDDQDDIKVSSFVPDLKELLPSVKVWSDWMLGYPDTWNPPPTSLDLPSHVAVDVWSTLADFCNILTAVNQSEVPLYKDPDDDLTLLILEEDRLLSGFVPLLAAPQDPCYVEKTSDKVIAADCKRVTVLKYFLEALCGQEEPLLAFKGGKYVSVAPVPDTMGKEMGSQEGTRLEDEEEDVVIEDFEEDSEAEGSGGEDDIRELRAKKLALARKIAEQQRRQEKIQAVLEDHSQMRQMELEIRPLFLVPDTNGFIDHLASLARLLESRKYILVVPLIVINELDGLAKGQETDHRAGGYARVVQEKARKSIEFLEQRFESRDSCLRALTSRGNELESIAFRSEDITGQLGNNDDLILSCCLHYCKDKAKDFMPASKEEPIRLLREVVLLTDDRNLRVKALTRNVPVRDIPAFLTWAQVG
UniProt O00161: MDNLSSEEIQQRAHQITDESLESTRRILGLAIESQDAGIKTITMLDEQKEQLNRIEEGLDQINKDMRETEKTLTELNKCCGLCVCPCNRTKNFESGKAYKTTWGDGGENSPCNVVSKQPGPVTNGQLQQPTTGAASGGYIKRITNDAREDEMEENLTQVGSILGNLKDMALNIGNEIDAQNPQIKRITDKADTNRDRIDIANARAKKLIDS
UniProt Q16637, whole entry, looked up: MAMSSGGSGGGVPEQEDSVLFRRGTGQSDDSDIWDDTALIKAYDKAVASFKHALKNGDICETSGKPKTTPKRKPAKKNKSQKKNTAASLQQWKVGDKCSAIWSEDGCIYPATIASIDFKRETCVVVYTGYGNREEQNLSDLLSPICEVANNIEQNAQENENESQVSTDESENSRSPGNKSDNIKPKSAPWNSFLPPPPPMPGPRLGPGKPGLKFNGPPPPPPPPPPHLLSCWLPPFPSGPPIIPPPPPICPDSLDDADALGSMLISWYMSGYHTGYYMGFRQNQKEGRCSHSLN
UniProt Q9Y289: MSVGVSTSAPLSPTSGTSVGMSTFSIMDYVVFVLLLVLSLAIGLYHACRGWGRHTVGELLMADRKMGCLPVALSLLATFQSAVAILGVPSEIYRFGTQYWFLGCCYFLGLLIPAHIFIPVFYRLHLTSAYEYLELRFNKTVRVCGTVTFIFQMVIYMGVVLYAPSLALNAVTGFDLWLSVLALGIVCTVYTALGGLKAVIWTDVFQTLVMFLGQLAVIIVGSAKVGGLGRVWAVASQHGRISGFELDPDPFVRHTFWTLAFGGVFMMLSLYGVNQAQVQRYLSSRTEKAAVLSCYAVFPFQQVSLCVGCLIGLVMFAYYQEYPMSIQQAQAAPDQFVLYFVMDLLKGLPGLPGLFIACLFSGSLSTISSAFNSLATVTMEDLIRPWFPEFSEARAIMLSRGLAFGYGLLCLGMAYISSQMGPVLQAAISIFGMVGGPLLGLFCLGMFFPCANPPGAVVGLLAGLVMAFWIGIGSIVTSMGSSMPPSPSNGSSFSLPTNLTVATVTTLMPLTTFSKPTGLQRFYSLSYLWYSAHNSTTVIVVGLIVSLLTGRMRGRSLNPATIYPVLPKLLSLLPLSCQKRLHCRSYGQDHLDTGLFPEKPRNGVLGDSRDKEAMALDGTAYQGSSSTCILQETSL
UniProt P19634, whole entry: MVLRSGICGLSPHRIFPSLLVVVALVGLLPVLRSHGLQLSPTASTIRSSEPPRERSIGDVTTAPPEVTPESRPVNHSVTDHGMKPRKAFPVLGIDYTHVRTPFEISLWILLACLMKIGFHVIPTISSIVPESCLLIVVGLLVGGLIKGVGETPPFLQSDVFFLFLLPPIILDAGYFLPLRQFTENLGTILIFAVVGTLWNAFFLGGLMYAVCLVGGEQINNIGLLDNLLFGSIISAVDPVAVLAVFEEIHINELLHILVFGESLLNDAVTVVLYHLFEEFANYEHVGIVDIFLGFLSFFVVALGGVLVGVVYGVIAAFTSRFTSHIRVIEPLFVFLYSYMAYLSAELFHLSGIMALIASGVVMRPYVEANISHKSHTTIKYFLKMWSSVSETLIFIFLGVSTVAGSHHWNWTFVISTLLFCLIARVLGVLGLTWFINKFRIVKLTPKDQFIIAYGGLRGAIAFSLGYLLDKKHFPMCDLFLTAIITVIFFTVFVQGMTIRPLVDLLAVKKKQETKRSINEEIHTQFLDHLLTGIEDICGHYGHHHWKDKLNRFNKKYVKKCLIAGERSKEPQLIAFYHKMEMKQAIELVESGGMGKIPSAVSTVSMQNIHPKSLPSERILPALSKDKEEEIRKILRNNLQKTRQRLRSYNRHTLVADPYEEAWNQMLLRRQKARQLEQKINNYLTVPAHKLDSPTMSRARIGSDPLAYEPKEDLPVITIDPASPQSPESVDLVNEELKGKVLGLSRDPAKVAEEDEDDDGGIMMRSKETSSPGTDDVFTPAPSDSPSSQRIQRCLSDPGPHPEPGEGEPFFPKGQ

Compound: CC1Cc2ccccc2N1C(=O)C1CCCN(C1)C(=O)CCl (mixture of isomers) [TRIM25 ligand 11 (diastereomer mixture)]
Experiment: probe-labelled cysteine peptide fold change vs DMSO (competition) (log2 fold change); higher = less target engagement (more negative = stronger competition)
Details: THP-1, incubation time: 4 h
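Note: competitive chemoproteomic profiling in live THP-1 cells with an iodoacetamide desthiobiotin (IA-DTB) probe, comparing probe-labelled peptide intensities in compound-treated cells against DMSO-treated controls.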

Row | Target | probe-labelled cysteine peptide fold change (10 µM) | probe-labelled cysteine peptide fold change (50 µM)
1 | SMS_P52788_337_LYCPVEFSK (UniProt P52788) | 0.0474 | 0.0296
2 | SMG1_Q96Q15_1715_QLISSCPWLSELDESATEGVIK (UniProt Q96Q15) | -0.174 | 0.0278
3 | SMC3_Q9UQE7_650_AFTMDCITLEGDQVSHR (UniProt Q9UQE7) | 0.0437 | 0.0692
4 | SNRNP200_O75643_502_AALETDENLLLCAPTGAGK (UniProt O75643) | 0.347 | 0.165
5 | SMG1_Q96Q15_3587_SVACSPK (UniProt Q96Q15) | -0.0485 | -0.0697
6 | SNRNP200_O75643_1115_TLNLCK (UniProt O75643) | 0.00507 | 0.109
7 | SMCHD1_A6NHR9_444_YHPFLYDRETYPDDPCFPSK (UniProt A6NHR9) | -0.0194 | -0.197
8 | SMPD4_Q9NXE4_221_TSDCAYFILVDR (UniProt Q9NXE4) | 0.14 | 0.266
9 | SLC4A1AP_Q9BWU0_399_ALQGFFDREGEELEYEFDEQGHSTWLCR (UniProt Q9BWU0) | 0.0606 | 0.0595
10 | SMARCD2_Q92925_298_CTLLLMLDHQPPQYK (UniProt Q92925) | -0.0298 | -0.00447
11 | SND1_Q7KZF4_268_DVQIILESCHNQNILGTILHPNGNITELLLK (UniProt Q7KZF4) | 0.125 | -0.0599
12 | SMCHD1_A6NHR9_970_LIVHCK (UniProt A6NHR9) | -0.0836 | 0.11
13 | SMC4_Q9NTJ3_916_QLDECASAITK (UniProt Q9NTJ3) | -0.00623 | 0.133
14 | SLC7A6OS_Q96CW6_62_AAENNVFHLVATVCSQEEPVQPLLR (UniProt Q96CW6) | -0.0977 | -0.671
15 | SMC1A_Q14683_1180_EQSTCNFQAIVISLK (UniProt Q14683) | -0.0336 | 0.0396
16 | SND1_Q7KZF4_440_TCATVTIGGINIAEALVSK (UniProt Q7KZF4) | -0.0184 | -0.0325
17 | SMC6_Q96SB8_1013_CLDEFDVYMDMVNRR (UniProt Q96SB8) | -0.007 | 0.139
18 | SMARCAD1_Q9H4L7_462_CEDISNK (UniProt Q9H4L7) | -0.00579 | -0.0217
19 | SMAD3_P84022_121_DEVCVNPYHYQR (UniProt P84022) | -0.0651 | 0.139
20 | SMG6_Q86US8_182_VEEEEVLNQVEQLRVEEDECR (UniProt Q86US8) | -0.0867 | -0.275

Row | Target | probe-labelled cysteine peptide fold change (10 µM) | probe-labelled cysteine peptide fold change (50 µM)
21 | SLC30A1_Q9Y6M5_433_SSVVPCELACR (UniProt Q9Y6M5) | 0.0126 | -0.123
22 | SLC27A3_Q5K4L6_112_ALAAAAADPEGPEGGCSLAWR (UniProt Q5K4L6) | -0.0867 | -0.00676
23 | SMC1A_Q14683_987_EALIEIDYGDLCEDLK (UniProt Q14683) | 0.0851 | -0.0807
24 | SNAP23_O00161_112_TTWGDGGENSPCNVVSK (UniProt O00161) | -0.228 | -0.329
25 | SLC4A2_P04920_1215_CLDANEAEPVFDER (UniProt P04920) | 0.297 | -0.0524
26 | SNRNP200_O75643_1471_KNVQNINLFVVDEVHLIGGENGPVLEVICSR (UniProt O75643) | 0.0797 | 0.107
27 | SMC6_Q96SB8_385_DDEQLCK (UniProt Q96SB8) | -0.0608 | -0.0749
28 | SNRNP200_O75643_1278_WLSCETQLPVSFR (UniProt O75643) | 0.233 | 0.199
29 | SMPD2_O60906_189_KADVVLLCGDLNMHPEDLGCCLLK (UniProt O60906) | -0.239 | 0.0116
30 | SMN2_Q16637_98_CSAIWSEDGCIYPATIASIDFK (UniProt Q16637) | 0.0396 | 0.0711
31 | SLC5A6_Q9Y289_577_LLSLLPLSCQK (UniProt Q9Y289) | 0.0138 | 0.0259
32 | SLC27A4_Q6P1M0_560_AGMAAVASPTGNCDLER (UniProt Q6P1M0) | 0.142 | -0.114
33 | SLC9A1_P19634_794_CLSDPGPHPEPGEGEPFFPK (UniProt P19634) | 0.0599 | 0.0131
34 | SMAD3_P84022_332_YGWHPATVCK (UniProt P84022) | -0.0236 | 0.0575
35 | SLC4A1AP_Q9BWU0_125_EGPTALQDSNSGEPDIPPPQPDCGDFR (UniProt Q9BWU0) | -0.107 | -0.294
36 | SMC4_Q9NTJ3_1083_CHEMKPNLGAIAEYK (UniProt Q9NTJ3) | -0.174 | -0.291
37 | SMYD3_Q9H7B4_261+263_DQYCFECDCFR (UniProt Q9H7B4) | 0.0499 | 0.00887
38 | SNRNP200_O75643_1706_CVIMCQGSKK (UniProt O75643) | -0.483 | -0.298
39 | SLC44A1_Q8WWI5_117_SVALCVAACPR (UniProt Q8WWI5) | -0.0403 | 0.0124
40 | SMARCA2_P51531_1296_LMEEDELPSWIIKDDAEVERLTCEEEEEK (UniProt P51531) | -0.248 | -0.36

A different layout for some results above:
Row	Target	probe-labelled cysteine peptide fold change (10 µM)	probe-labelled cysteine peptide fold change (50 µM)
18	SMARCAD1_Q9H4L7_462_CEDISNK (UniProt Q9H4L7)	-0.00579	-0.0217
19	SMAD3_P84022_121_DEVCVNPYHYQR (UniProt P84022)	-0.0651	0.139
20	SMG6_Q86US8_182_VEEEEVLNQVEQLRVEEDECR (UniProt Q86US8)	-0.0867	-0.275
21	SLC30A1_Q9Y6M5_433_SSVVPCELACR (UniProt Q9Y6M5)	0.0126	-0.123
22	SLC27A3_Q5K4L6_112_ALAAAAADPEGPEGGCSLAWR (UniProt Q5K4L6)	-0.0867	-0.00676
23	SMC1A_Q14683_987_EALIEIDYGDLCEDLK (UniProt Q14683)	0.0851	-0.0807
24	SNAP23_O00161_112_TTWGDGGENSPCNVVSK (UniProt O00161)	-0.228	-0.329
25	SLC4A2_P04920_1215_CLDANEAEPVFDER (UniProt P04920)	0.297	-0.0524
26	SNRNP200_O75643_1471_KNVQNINLFVVDEVHLIGGENGPVLEVICSR (UniProt O75643)	0.0797	0.107
27	SMC6_Q96SB8_385_DDEQLCK (UniProt Q96SB8)	-0.0608	-0.0749
28	SNRNP200_O75643_1278_WLSCETQLPVSFR (UniProt O75643)	0.233	0.199
29	SMPD2_O60906_189_KADVVLLCGDLNMHPEDLGCCLLK (UniProt O60906)	-0.239	0.0116
30	SMN2_Q16637_98_CSAIWSEDGCIYPATIASIDFK (UniProt Q16637)	0.0396	0.0711
31	SLC5A6_Q9Y289_577_LLSLLPLSCQK (UniProt Q9Y289)	0.0138	0.0259
32	SLC27A4_Q6P1M0_560_AGMAAVASPTGNCDLER (UniProt Q6P1M0)	0.142	-0.114
33	SLC9A1_P19634_794_CLSDPGPHPEPGEGEPFFPK (UniProt P19634)	0.0599	0.0131
34	SMAD3_P84022_332_YGWHPATVCK (UniProt P84022)	-0.0236	0.0575

(further entries)

Row | Target | probe-labelled cysteine peptide fold change (10 µM) | probe-labelled cysteine peptide fold change (50 µM)
41 | SNRNP200_O75643_1706_CVIMCQGSK (UniProt O75643) | 0.0537 | 0.0778
42 | SLC9A3R2_Q15599_103_QLTCTEEMAQR (UniProt Q15599) | -0.156 | 0.169
43 | SMARCA5_O60264_283_DVLLPGEWDVCVTSYEMLIK (UniProt O60264) | 0.253 | -0.148
44 | SNRNP200_O75643_1731_FLYEPLPVESHLDHCMHDHFNAEIVTK (UniProt O75643) | -0.083 | -0.047
45 | SMG1_Q96Q15_1245_FVECTEQLELLPGENINLLAGGSK (UniProt Q96Q15) | 0.178 | -0.153
46 | SMC1A_Q14683_619_ALQYACGNALVCDNVEDARR (UniProt Q14683) | 0.139 | -0.0848
47 | SMARCA5_O60264_457_CCNHPYLFDGAEPGPPYTTDMHLVTNSGK (UniProt O60264) | 0.0517 | 0.132
48 | SLC30A1_Q9Y6M5_437_SSVVPCELACR (UniProt Q9Y6M5) | -0.129 | -0.19
49 | SLC27A3_Q5K4L6_411_FSAGQFWEDCQQHR (UniProt Q5K4L6) | 0.138 | 0.297
50 | SMAP2_Q8WU79_196_STAPVMDLLGLDAPVACSIANSK (UniProt Q8WU79) | -0.199 | -0.252
51 | SND1_Q7KZF4_152_LSECEEQAK (UniProt Q7KZF4) | -0.0482 | -0.131
52 | SMCHD1_A6NHR9_444_ETYPDDPCFPSK (UniProt A6NHR9) | 0.0831 | -0.175
53 | SMC4_Q9NTJ3_323_KNHVCQYYIYELQK (UniProt Q9NTJ3) | -0.227 | -0.334
54 | SMC4_Q9NTJ3_323_NHVCQYYIYELQK (UniProt Q9NTJ3) | 0.0622 | -0.0168
55 | SLC7A6OS_Q96CW6_166_TSDPDVILCNSVELIR (UniProt Q96CW6) | -0.174 | -0.354
56 | SMAD4_Q13485_523_ETPCWIEIHLHR (UniProt Q13485) | -0.0594 | -0.00398
57 | SMARCC1_Q92922_520_NLTGDVCAVMR (UniProt Q92922) | 0.0461 | 0.0284
58 | SMC3_Q9UQE7_972_KLEQCNTELK (UniProt Q9UQE7) | -0.0501 | -0.026
